Results deposited as PubChem BioAssay AID602196 (INSERM, 2012)
Purpose: 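Knock-downs that protect lung cancer cells from cisplatin or sensitise them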. System: human A549 lung cancer cells. Reagent: siRNA pair against human genes. Time to read-out: 48 h transfection before cisplatin; time from cisplatin to read-out not stated. Treatment: cisplatin at a dose killing half of control-siRNA cells; exact dose and duration not given. Measured: 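Cisplatin cell death as a shift from the 50% death seen with control siRNA; siRNAs toxic or growth-blocking alone scored 0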. Reading the numbers: two-siRNA summed score (-2 to +2): higher = both siRNAs protect from cisplatin killing; -2 means both sensitise; mean protection from cisplatin (shift in death) and protection from cisplatin (shift in death), siRNA C: higher = protection from cisplatin killing. Call rule: 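siRNAs harmful alone (LDH or WST-1) get 0; others get +1 for less and -1 for more cisplatin killing; genes are active when the two siRNAs give the same sign, summing to ±2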. Meaning of the calls: active = both siRNAs shift cisplatin killing the same way; inactive = no consistent shift, or siRNA harmful alone.
The whole screen tested about 23,000 reagents; this is a random part of them. 455 of all reagents (2%) count as active. 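Active includes both protection and sensitisation; some change values fall well beyond the stated -50 to +50 range.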 Further read-outs or replicates are left out here. Reagent sequences are not shown. Not given: the amount of reagent.

target	PubChem SID	two-siRNA summed score (-2 to +2)	mean protection from cisplatin (shift in death) (%)	protection from cisplatin (shift in death), siRNA C (%)	Outcome
AIMP1 (GeneID 9255)	SID131516060	0	10.2	16.7	inactive
CYB561D1 (GeneID 284613)	SID131517885	0	15.2	26.4	inactive
LSM3 (GeneID 27258)	SID131509656	0	2.4	21.4	inactive
CCDC174 (GeneID 51244)	SID131507964	0	0.5	-17.9	inactive
RAB5IF (GeneID 55969)	SID131513682	0	6.9	2.2	inactive
KIAA0408 (GeneID 9729)	SID131521579	1	14	-7.9	inactive
LOC402200	SID131505358	0	-3.3	4.2	inactive
JMJD1C (GeneID 221037)	SID131505406	0	-3.2	-7.1	inactive
TFAP2B (GeneID 7021)	SID131511884	0	4.9	1.9	inactive
MXD4 (GeneID 10608)	SID131500600	-1	-19.8	-9.8	inactive
LOC389660	SID131519537	1	6.2	14	inactive
DSP (GeneID 1832)	SID131514056	0	7.3	24.5	inactive
FCER1G (GeneID 2207)	SID131505867	0	-2.4	1	inactive
APCS (GeneID 325)	SID131511358	0	4.3	7	inactive
LOC390258	SID131518727	0	25.3	10.1	inactive
PELI3 (GeneID 246330)	SID131519141	1	2.9	9.6	inactive
P2RX4 (GeneID 5025)	SID131505974	0	-2.2	-8.7	inactive
ARHGAP19 (GeneID 84986)	SID131504481	0	-5.3	-10.5	inactive
SMAD6 (GeneID 4091)	SID131500710	-1	-17.3	-15.2	inactive
OPHN1 (GeneID 4983)	SID131512502	0	5.5	5.2	inactive
CARD9 (GeneID 64170)	SID131519314	1	4.7	23.6	inactive
LOC440551	SID131514170	0	7.5	12.7	inactive
CCDC71 (GeneID 64925)	SID131514251	0	7.6	1.8	inactive
